Data reported in PubChem BioAssay AID2685 (National Center for Advancing Translational Sciences (NCATS), 2010).
Hit rate of the full screen: of about 320,000 compounds, about 2,100 (0.66%) were called active. Inconclusive results, whose numbers are uncertain, are shown with a selection of clear calls. Calls come from the whole dose curve; as a rule, active = well fitted inhibition curve with a large enough effect in the signal ratio, with a control signal flat (not every such curve was filed as active); inconclusive = small, poorly fitted or top-dose-only effect, or effect the other way, or a change in a side signal; inactive = flat fitted curve, though single readings scatter; the % refers to the signal ratio. Where the call is inconclusive, the potency comes from a doubtful curve fit.

Experiment: qHTS Assay for Lipid Storage Modulators in Drosophila S3 Cells
Settings: BODIPY lipid droplet fluorescence, 18-24 h, cells fed with added oleic acid; lipid storage change, negative = inhibition: at 46.1 µM (top of the series) unless noted
How it was run: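 Drosophila S3 cells got compounds at several concentrations plus oleic acid (400 uM solution). Laser-scanning cytometry with 488 nm excitation read lipid droplets at 500-530 nm and cells at 575-640 nm. Percent activity was relative to 20 uM Triacsin C.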
% is set by controls: 0 for no effect and ±100 for the full control effect; potency is the fitted concentration of half-maximal effect.

SMILES | Potency | lipid storage change, negative = inhibition | outcome
CNC(=O)C1Cc2ccccc2CN1S(=O)(=O)c1cccs1 (centres undefined) | inconclusive: 5.8 µM [falling, full curve] |  | 
CN(C(=O)c1ccc(NC(=O)Cc2cccc(NC(=O)C3CCN(C(=O)C4CCCCC4)CC3)c2)cc1)C1CCCC1 |  | inconclusive: 8.99% | 
O=C(CSc1nnc2ccccn12)Nc1nsc(-c2ccccc2)n1 | inconclusive: 7.31 µM [activator, partial curve, poor fit] |  | 
O=C1CSC(c2ccccn2)N1c1ccccc1 (centres undefined) |  | inconclusive: 103% | 
CCn1c(SCCC#N)nnc1-c1ccncc1 |  | inconclusive: -40.3% | 
O=C(Nc1ccc(C(=O)N2CCOCC2)cc1)c1cnn2c(C(F)F)cc(-c3ccccc3)nc12 |  | inactive: 12.7% | 
O=S(=O)(Nc1ccc2c(c1)OCCO2)c1c(F)cccc1F | inconclusive: 29.1 µM [activator, single point] |  | 
COc1cc(OC)c(OC)cc1CN1CCN(Cc2cccc(F)c2)CC1 |  | inconclusive: 24.3% | 
Cc1ccccc1C(=O)Nc1nnc(-c2ccncc2)o1 | inconclusive: 32.6 µM [falling, single point] |  | 
O=C1C2CCCCN2C(=O)N1CCCCN1CCN(c2ccccc2Oc2ccccc2)CC1 (centres undefined) | inconclusive: 9.2 µM [falling, partial curve, poor fit] |  | 
COc1ccc(-c2cc(C(F)(F)F)n3ncc(C(=O)NCC4CCCO4)c3n2)cc1 (centres undefined) | inconclusive: 29.1 µM [rising, single point] |  | 
O=C(NCC(=O)N(Cc1ccccc1)C(C(=O)NC1CCCC1)c1ccncc1)c1ccco1 (centres undefined) |  | inactive: -5.7% | 
CC(C(=O)Nc1ccc(S(=O)(=O)N2CCCC2)cc1)N1CCCC(C(N)=O)C1 (centres undefined) |  | inconclusive | 
Cc1ccc(C)c(NC(=O)CSc2nnc(-c3ccccc3)n2N)c1 | inconclusive: 4.11 µM [activator, single point] |  | 
Cc1cc(SCC(=O)OC(C)C(=O)N(C)c2ccccc2)nc2ccccc12 (centres undefined) |  | inconclusive: 30.4% | 
S=C(NCC1CCCO1)NC1CCCC1 (centres undefined) | active: 1.3 µM |  | 
COCC(=O)N1CCC(Oc2ccc(C(=O)NC3CCOC(C)(C)C3)cc2)CC1 (centres undefined) | inconclusive: 29.1 µM [activator, single point] |  | 
COc1ccccc1-c1nnc(SCc2nc3ccccc3[nH]2)n1C |  | inconclusive: -62.8% | 
C/C=C/c1ccc(OCCCCOc2c(OC)cccc2OC)c(OC)c1 |  | inconclusive: -28.2% | 
CCN1C(=O)CSC1=Nc1ccccc1Cl | inconclusive: 25.9 µM [activator, single point] |  | 
N=c1n(Cc2ccccc2)c2ccccc2n1CC(O)COc1ccc(Cl)cc1Cl (centres undefined) | inconclusive: 16.4 µM [cytotoxic, partial curve] |  | 
Clc1ccc(-c2nc(-c3ccccn3)no2)cc1Cl |  | inconclusive: 65% | 
O=C(c1ccccc1)N1CCN(c2ncccn2)CC1 |  | inconclusive: -3.72% | 
Cc1cccc(N2CCN(C(=O)c3cc(S(=O)(=O)N4CCOCC4)cn3C)CC2C)c1 (centres undefined) |  | inconclusive: 34.2% | 
CC(C)(C)C1CCc2nc(NC(=O)Cc3cn4ccsc4n3)sc2C1 (centres undefined) |  | inconclusive: 35.5% | 

SMILES | Potency | lipid storage change, negative = inhibition | outcome
CC(=O)c1ccc(N2CCN(C(=S)NCCCN(C)C)CC2)cc1 | inconclusive: 23.1 µM [cytotoxic, partial curve] |  | 
CCOc1ccc2nc(N/C(N)=N/C(=S)Nc3ccc(C)c(C)c3)nc(C)c2c1 |  | inconclusive: 21.3% | 
Cc1c(Cl)cnc(NC(=O)CSc2nnc3ccccn23)c1Cl | inconclusive: 4.61 µM [falling, single point] |  | 
O=C(O)c1oc2ccccc2c1CSc1ccc(Cl)cc1 | inconclusive: 29.1 µM [activator, single point] |  | 
CN(C)c1nc(NN)nc(Nc2ccc(F)cc2)n1 |  | inconclusive: 17.1% | 
CCOC(=O)c1[nH]c(C)c(C(=O)N(C)C)c1C |  | inconclusive: -95.6% | 
CN(C)/C=C/C1=CC(=O)CC(C)(C)C1 |  | inconclusive: -35.3% | 
COc1ccccc1N1CC(C(=O)Nc2nnc(SCc3cccnc3)s2)CC1=O (centres undefined) |  | inconclusive: -39.8% [at 0.00295 µM] | 
Cc1ccc(NC(=O)CC2SC(=Nc3ccc(O)cc3)NC2=O)cc1 (centres undefined) |  | inconclusive: -13.7% | 
CC(C)Cc1nn2c(=O)cc(COc3ccc(NC(=O)c4ccco4)cc3)nc2s1 | inconclusive: 0.651 µM [activator, full curve] |  | 
CCOC(=O)CSc1nc2c(c(=O)n1-c1ccc(OCC)cc1)SCC2 | inconclusive: 29.1 µM [cytotoxic, partial curve, poor fit] |  | 
O=C1CCCC2=C1C(c1ccccc1)C1C(=O)c3ccccc3C1=N2 (centres undefined) |  | inconclusive: 18.1% | 
CC(C)(C)NC(=O)C1CCN(C(=O)c2ccco2)CC1 |  | inconclusive: 0.794% | 
COC(=O)C1=C(C)N(C)C(=S)NC1c1ccccc1 (centres undefined) | inconclusive: 29.1 µM [falling, single point] |  | 
CCC1=NN2C(=N)/C(=C\c3cccn3-c3ccc(OC)cc3)C(=O)N=C2S1 |  | inconclusive: 6.85% | 
Cc1cc(NC(=S)N(CCCN2CCOCC2)Cc2ccco2)ccc1Cl |  | inconclusive: -31.3% | 
O=C(c1cnn(Cc2ccccc2)c1)N1CCN(S(=O)(=O)/C=C/c2ccccc2)CC1 |  | inconclusive: -2.48% | 
CC(=O)c1nn(-c2ccc(Cl)cc2)c(=O)[nH]c1=O |  |  | inactive [at 46.1 µM]
CC(=O)Oc1ccc(C(=O)Nc2cccc3c2CCCC3)cc1 |  | inconclusive: -23.9% | 
CN(CC(=O)NC(=O)NCc1ccccc1)CC(=O)Nc1ccc(Cl)c(C(F)(F)F)c1 |  | inconclusive: 44% | 
O=C(OCc1nc2ccc(Cl)cc2n1CCO)c1ccccc1 | inconclusive: 1.64 µM [falling, partial curve, poor fit] |  | 
CCOC(=O)C(=CNc1cc(C)nn1-c1ccc(C)cc1)C(=O)OCC | inconclusive: 1.64 µM [activator, partial curve] |  | 
O=C(c1noc2c1CCCC2)N1CCN(C(c2ccccc2)c2ccccc2)CC1 |  | inconclusive: -3.24% | 
O=C(O)CCc1ccc(S(=O)(=O)Nc2cc(C(F)(F)F)ccc2N2CCCC2)cc1 | inconclusive: 4.11 µM [activator, partial curve] |  | 

Three entries from above, as labelled records:
CN(C)c1nc(NN)nc(Nc2ccc(F)cc2)n1
  lipid storage change, negative = inhibition: inconclusive: 17.1%
CCOC(=O)c1[nH]c(C)c(C(=O)N(C)C)c1C
  lipid storage change, negative = inhibition: inconclusive: -95.6%
CC(=O)Oc1ccc(C(=O)Nc2cccc3c2CCCC3)cc1
  lipid storage change, negative = inhibition: inconclusive: -23.9%
